B1: UBL5 (protein, UniProt Q9BZL1 1-73)
chain: MIEVVCNDRLGKKVRVKCNTDDTIGDLKKLIAAQTGTRWNKIVLKKWYTIFKDHVSLGDYEIHDGMNLELYYQ
B2: STX5 (protein, UniProt Q13190 1-355)
chain: MIPRKRYGSKNTDQGVYLGLSKTQVLSPATAGSSSSDIAPLPPPVTLVPPPPDTMSCRDRTQEFLSACKSLQTRQNGIQTNKPALRAVRQRSEFTLMAKRIGKDLSNTFAKLEKLTILAKRKSLFDDKAVEIEELTYIIKQDINSLNKQIAQLQDFVRAKGSQSGRHLQTHSNTIVVSLQSKLASMSNDFKSVLEVRTENLKQQRSRREQFSRAPVSALPLAPNHLGGGAVVLGAESHASKDVAIDMMDSRTSQQLQLIDEQDSYIQSRADTMQNIESTIVELGSIFQQLAHMVKEQEETIQRIDENVLGAQLDVEAAHSEILKYFQSVTSNRWLMVKIFLILIVFFIIFVVFLA
B3: DISC1 (protein, UniProt Q9NRI5 1-854)
chain: MPGGGPQGAPAAAGGGGVSHRAGSRDCLPPAACFRRRRLARRPGYMRSSTGPGIGFLSPAVGTLFRFPGGVSGEESHHSESRARQCGLDSRGLLVRSPVSKSAAAPTVTSVRGTSAHFGIQLRGGTRLPDRLSWPCGPGSAGWQQEFAAMDSSETLDASWEAACSDGARRVRAAGSLPSAELSSNSCSPGCGPEVPPTPPGSHSAFTSSFSFIRLSLGSAGERGEAEGCPPSREAESHCQSPQEMGAKAASLDGPHEDPRCLSRPFSLLATRVSADLAQAARNSSRPERDMHSLPDMDPGSSSSLDPSLAGCGGDGSSGSGDAHSWDTLLRKWEPVLRDCLLRNRRQMEVISLRLKLQKLQEDAVENDDYDKAETLQQRLEDLEQEKISLHFQLPSRQPALSSFLGHLAAQVQAALRRGATQQASGDDTHTPLRMEPRLLEPTAQDSLHVSITRRDWLLQEKQQLQKEIEALQARMFVLEAKDQQLRREIEEQEQQLQWQGCDLTPLVGQLSLGQLQEVSKALQDTLASAGQIPFHAEPPETIRSLQERIKSLNLSLKEITTKVCMSEKFCSTLRKKVNDIETQLPALLEAKMHAISGNHFWTAKDLTEEIRSLTSEREGLEGLLSKLLVLSSRNVKKLGSVKEDYNRLRREVEHQETAYETSVKENTMKYMETLKNKLCSCKCPLLGKVWEADLEACRLLIQSLQLQEARGSLSVEDERQMDDLEGAAPPIPPRLHSEDKRKTPLKVLEEWKTHLIPSLHCAGGEQKEESYILSAELGEKCEDIGKKLLYLEDQLHTAIHSHDEDLIQSLRRELQMVKETLQAMILQLQPAKEAGEREAAASCMTAGVHEAQA
B4: MDM1 (protein, UniProt Q8TC05 1-714)
chain: MPVRFKGLSEYQRNFLWKKSYLSESCNSSVGRKYPWAGLRSDQLGITKEPSFISKRRVPYHDPQISKSLEWNGAISESNVVASPEPEAPETPKSQEAEQKDVTQERVHSLEASRVPKRTRSHSADSRAEGASDVENNEGVTNHTPVNENVELEHSTKVLSENVDNGLDRLLRKKAGLTVVPSYNALRNSEYQRQFVWKTSKETAPAFAANQVFHNKSQFVPPFKGNSVIHETEYKRNFKGLSPVKEPKLRNDLRENRNLETVSPERKSNKIDDRLKLEAEMELKDLHQPKRKLTPWKHQRLGKVNSEYRAKFLSPAQYLYKAGAWTHVKGNMPNQVKELREKAEFYRKRVQGTHFSRDHLNQILSDSNCCWDVSSTTSSEGTVSSNIRALDLAGDPTSHKTLQKCPSTEPEEKGNIVEEQPQKNTTEKLGVSAPTIPVRRRLAWDTENTSEDVQKQPGEKEEEDDNEEEGDRKTGKQAFMGEQEKLDVREKSKADKMKEGSDSSVSSEKGGRLPTPKLRELGGIQRTHHDLTTPAVGGAVLVSPSKMKPPAPEQRKRMTSQDCLETSKNDFTKKESRAVSLLTSPAAGIKTVDPLPLREDSEDNIHKFAEATLPVSKIPKYPTNPPGQLPSPPHVPSYWHPSRRIQGSLRDPEFQHNVGKARMNNLQLPQHEAFNDEDEDRLSEISARSAASSLRAFQTLARAKKRKENFWGKT

Chains of the proteins cited; added tags and fusions are not shown. Lines headed by an entry give the natural chain unless they say otherwise; changes in a name come on top. Residues count along the entry.
UniProt Q4J6C6, residues 90-727: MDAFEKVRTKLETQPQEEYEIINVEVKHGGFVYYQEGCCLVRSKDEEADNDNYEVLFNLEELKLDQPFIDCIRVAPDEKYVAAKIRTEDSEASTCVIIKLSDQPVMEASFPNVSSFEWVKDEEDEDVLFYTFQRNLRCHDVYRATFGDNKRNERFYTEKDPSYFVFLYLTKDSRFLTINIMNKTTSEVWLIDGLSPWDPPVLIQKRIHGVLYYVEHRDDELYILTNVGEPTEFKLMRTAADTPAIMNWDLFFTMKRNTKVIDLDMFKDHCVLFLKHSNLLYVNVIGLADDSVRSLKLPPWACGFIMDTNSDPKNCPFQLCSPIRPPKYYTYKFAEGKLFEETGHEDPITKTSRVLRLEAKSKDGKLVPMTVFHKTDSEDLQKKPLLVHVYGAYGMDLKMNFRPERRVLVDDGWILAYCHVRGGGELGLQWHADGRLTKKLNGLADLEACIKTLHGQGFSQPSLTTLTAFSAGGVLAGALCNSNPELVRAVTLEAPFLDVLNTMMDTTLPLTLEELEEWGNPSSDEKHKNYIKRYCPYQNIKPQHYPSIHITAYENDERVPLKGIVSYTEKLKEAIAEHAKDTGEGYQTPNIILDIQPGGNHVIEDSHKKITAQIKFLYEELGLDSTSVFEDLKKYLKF
UniProt Q7Z4H4: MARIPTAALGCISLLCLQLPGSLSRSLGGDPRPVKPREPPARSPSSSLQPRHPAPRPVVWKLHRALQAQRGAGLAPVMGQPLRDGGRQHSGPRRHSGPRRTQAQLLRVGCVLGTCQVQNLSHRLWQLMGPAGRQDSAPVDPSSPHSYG
UniProt Q9BTE1: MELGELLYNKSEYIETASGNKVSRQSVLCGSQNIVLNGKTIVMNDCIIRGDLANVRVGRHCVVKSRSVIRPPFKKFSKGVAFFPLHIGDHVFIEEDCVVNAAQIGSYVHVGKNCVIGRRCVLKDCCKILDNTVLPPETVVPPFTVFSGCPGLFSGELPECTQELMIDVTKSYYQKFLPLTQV
UniProt P19404, residues 33-249: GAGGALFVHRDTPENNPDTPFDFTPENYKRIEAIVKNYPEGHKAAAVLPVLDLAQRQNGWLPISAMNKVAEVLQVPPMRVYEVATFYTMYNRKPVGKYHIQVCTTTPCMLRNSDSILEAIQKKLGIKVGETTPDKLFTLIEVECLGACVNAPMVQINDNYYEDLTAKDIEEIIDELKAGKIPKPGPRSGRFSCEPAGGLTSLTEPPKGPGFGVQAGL
UniProt Q15118, residues 29-436: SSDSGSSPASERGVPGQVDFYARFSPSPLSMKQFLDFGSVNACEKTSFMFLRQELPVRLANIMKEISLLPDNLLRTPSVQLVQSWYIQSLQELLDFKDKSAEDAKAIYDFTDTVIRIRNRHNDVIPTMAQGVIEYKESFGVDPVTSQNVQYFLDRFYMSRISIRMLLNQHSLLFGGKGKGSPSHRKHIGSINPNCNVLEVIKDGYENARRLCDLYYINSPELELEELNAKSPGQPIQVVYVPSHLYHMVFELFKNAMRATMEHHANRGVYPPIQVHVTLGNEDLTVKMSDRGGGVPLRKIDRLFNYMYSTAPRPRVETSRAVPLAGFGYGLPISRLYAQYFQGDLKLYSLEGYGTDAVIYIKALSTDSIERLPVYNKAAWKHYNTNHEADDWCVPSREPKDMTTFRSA

The text below walks through data of paper PMC11385081.

No constants are given. Whether binding was seen depends on the method and setting. Binding calls can cover weak binding; strength is not graded here.

For one test, the target named is PREPL β-propeller domain alone, MAPPIT bait (human) (UniProt Q4J6C6). As to the kind of experiment: two-hybrid; MAPPIT (mammalian protein-protein interaction trap) in HEK293T cells, 96-well; cotransfected with 250 ng bait (PREPLS in pSEL(+2L)), 500 ng prey (pMG1) and 50 ng pXP2d2-rPAP1-luciferase reporter; stimulated with NeoRecormon 5 ng/mL; luciferase measured 24 h after stimulation; normalised to irrelevant bait and irrelevant prey; signals relative to WT PREPL; WT also tested with 50 μM inhibitor 8 (interactions decreased with 8 interactors).
Regarding ADM2 (from UniProt Q7Z4H4), the binding entry was “no binding”.
Consider ARPC5L (from UniProt Q9BPX5 1-153), for which the binding entry was “no binding”.
DCTN5 (from UniProt Q9BTE1 1-182): the binding entry was “no binding”.
Consider NDUFV2 (from UniProt P19404 33-249), for which the binding entry is “binds”.
PDK1 (from UniProt Q15118 29-436): the binding result is “no binding”.
Regarding B1, the binding entry is “binds”.
On the same count and under the same terms, the entry for B2 is “no binding”; for B3 it is “no binding”; for B4 it is “no binding”.

The next test has as its target WT PREPL (prolyl endopeptidase-like, PREPLS), MAPPIT bait (human) (UniProt Q4J6C6). Described as above.
With ADM2 (from UniProt Q7Z4H4), the binding entry is reported as “binds”.
